# Test results from PubChem BioAssay AID1347131 (National Center for Advancing Translational Sciences (NCATS), 2019).
# Where “and” joins values, the source holds several entries; their conditions need not be identical. Identical values can stand only once. In all, about 410,000 compounds went through this assay and about 2,000 (0.49%) were called active. The inconclusive results got no clear call from the source; some entries with a clear call stand among them for comparison. Calls come from the whole dose curve; tested in HEK293 reporter line. A potency beside an inconclusive call is a rough fit, not a confirmed value.
# Assay: qHTS Assay for Foot and Mouth Disease Virus Antivirals: Primary Screen against the MLPCN compound library; note: nearly all actives have a fitted effect of over 55% in size
# Conditions: FMDV antiviral cell-based qHTS; activity, negative = inhibition: at 57.9 µM (top of the series)
# Potency is the fitted concentration of half-maximal effect.
SMILES,Potency,"activity, negative = inhibition"
COc1ccc2[nH]cc(CCNc3ncncc3-c3ccccc3C)c2c1,"inconclusive: 20 µM [inhibitor, partial curve, poor fit]",–
O=C(C1CC1)N1CCc2cc(Br)cc(S(=O)(=O)Nc3ccc(F)c(F)c3)c21,"inconclusive: 39.8 µM [inhibitor, single point]",–
CC1(Cc2cccc(C(F)(F)F)c2)C(=O)Nc2ccc(-c3ccc(F)c(Cl)c3)cc21 (stereo not drawn),"inconclusive: 25.1 µM [inhibitor, partial curve, poor fit]",–
CCCc1ccc(OCc2ccc(C(=O)O)o2)c(OC)c1,"inconclusive: 11.2 µM [inhibitor, single point]",–
Cc1nn(-c2ccc(NC(=O)c3ccncc3)cc2)c(C)c1Cl,"inconclusive: 17.8 µM [inhibitor, partial curve, poor fit]",–
O=c1c2ccccc2sc2ccc(C#CC3(O)CCCCC3)cc12,–,inactive: -68.8%
CCCCc1c(-c2ccc(OC)cc2)ncn1CCc1ccccc1OC,"inconclusive: 22.4 µM [inhibitor, partial curve, poor fit]",–
O=C(C1=C[C@H](c2ccc3c(c2)OCO3)C[C@H](OCc2ccc(CO)cc2)O1)N1CCN(Cc2ccc3c(c2)OCO3)CC1,–,inactive: -38%
CCn1cc(C(=O)NCc2cccc(F)c2)c(=O)c2cc(F)c(N3CCN(C(=O)c4ccco4)CC3)cc21,"inconclusive: 15.8 µM [inhibitor, partial curve, poor fit]",–
Cc1noc(C)c1-c1nc(CS(=O)(=O)c2ccc(F)cc2)no1,"inconclusive: 2.24 µM [inhibitor, partial curve, poor fit]",–
COc1cc2[nH]c(=S)nc(NC3CCCCCC3)c2cc1OC,–,inactive: -38.7%
CC(=O)Nc1ccc(S(=O)(=O)N2CCN=C2SCc2ccc([N+](=O)[O-])cc2)cc1,"inconclusive: 22.4 µM [inhibitor, partial curve, poor fit]",–
Cn1c(=O)c2c(-c3ccccc3)n(Cc3ccccn3)cc2n(C)c1=O,"inconclusive: 1.26 µM [inhibitor, partial curve, poor fit]",–
Cc1nc2cc(NC(=O)c3ccc(S(=O)(=O)N(C)c4ccccc4)cc3)ccc2o1,"inconclusive: 22.4 µM [inhibitor, partial curve, poor fit]",–
Cc1ccc(C)c(N2CCN(C(=O)CCCOc3cc(=O)n(C)c4ccccc34)CC2)c1,"inconclusive: 25.1 µM [inhibitor, partial curve, poor fit]",–
COc1ccccc1NC(=O)COc1ccc(-c2nn(C)c(=O)c3ccccc23)cc1,"inconclusive: 17.8 µM [inhibitor, partial curve, poor fit]",–
CC(=O)SC(C[N+](=O)[O-])c1cn(C(C)=O)c2ccccc12 (stereo not drawn),"inconclusive: 28.2 µM [inhibitor, partial curve, poor fit]",–
CN1\C(=C/C=C/C=C/C=[N+](C)C)C(C)(C)c2ccccc21,"inconclusive: 15.8 µM [inhibitor, partial curve, poor fit]",–
CCc1nn2cc(-c3ccccc3)nc2s1,"inconclusive: 10 µM [inhibitor, partial curve, poor fit]",–
O=C(Nc1ncc([N+](=O)[O-])s1)c1cccs1,"inconclusive: 10 µM [inhibitor, single point]",–

SMILES,Potency,"activity, negative = inhibition"
Cc1cc(C)c(CN2CCC(CO)(CCOc3ccccc3)CC2)cc1C,"inconclusive: 12.6 µM [inhibitor, partial curve, poor fit]",–
CCOc1ccc(CN(C)C(=O)CCl)cc1,"inconclusive: 25.1 µM [inhibitor, partial curve, poor fit]",–
Cc1ccc(-c2cc(C(=O)N/N=C/C=C/c3ccco3)c3ccccc3n2)cc1C,"inconclusive: 1.58 µM [inhibitor, full curve, poor fit]",–
C=CCc1ccccc1OCC(O)CN1CCN(c2ccccc2OC)CC1 (stereo not drawn),–,inactive: -34.9%
COc1ccc(-n2nc3cc(C)c(NC(C)=O)cc3n2)cc1,"inconclusive: 12.6 µM [inhibitor, single point]",–
CCOC(=O)C(=Cc1ccc(-c2ccsc2C(=O)OC)o1)C(=O)OCC,"inconclusive: 31.6 µM [inhibitor, partial curve, poor fit]",–
CCCCCCCCCCCCCCCC[n+]1ccccc1,"inconclusive: 15.8 µM [inhibitor, partial curve, poor fit]",–
O=c1cc(Cc2nnc(SCc3ccccc3)n2-c2ccc(Cl)cc2)[nH]c(=O)[nH]1,"inconclusive: 8.91 µM [inhibitor, partial curve, poor fit]",–
Cc1ccc(N(CC(=O)NCC2CCCO2)C(=O)CCC(=O)Nc2ccccn2)cc1 (stereo not drawn),"inconclusive: 5.62 µM [inhibitor, partial curve]",–
CCCc1c(C(=O)N/N=C/c2ccc(C)o2)nnn1-c1nonc1N,"inconclusive: 25.1 µM [inhibitor, partial curve, poor fit]",–
CCOC(=O)c1ccc(N=c2sc(C(=O)OC)cc(=O)n2CCCN2CCOCC2)cc1,"inconclusive: 22.4 µM [inhibitor, partial curve, poor fit] and inconclusive: 15.8 µM [inhibitor, partial curve, poor fit]",–
Cc1cc(=O)[nH]c(N/N=C/c2c(C)oc3ccccc23)n1,"inconclusive: 6.31 µM [inhibitor, partial curve]",–
COC1=C(N)C(=O)c2nc(C)ccc2C1=O,"inconclusive: 10 µM [inhibitor, partial curve, poor fit]",–
CCc1ccc(/C=N/NC(=O)c2ccccn2)cc1,"inconclusive: 12.6 µM [inhibitor, partial curve, poor fit]",–
Cc1ccc(Cl)cc1N=C(N)N=C(N)N,"inconclusive: 28.2 µM [inhibitor, partial curve, poor fit]",–
CCC(=O)Nc1cccc(-c2ccc(N3CCC(C)CC3)nn2)c1,"inconclusive: 17.8 µM [inhibitor, single point]",–
Cc1cc(CN(C)C(=O)c2cc(COc3ccc4ncccc4c3)on2)on1,–,inactive: -33.2%
Cc1ccc(C)c(NC(=O)CSc2nnc(CCCCCNC(=O)OC(C)(C)C)o2)c1,"inconclusive: 15.8 µM [inhibitor, partial curve, poor fit]",–
CC1(C)CC(=O)C(C(C2=C(O)CC(C)(C)CC2=O)c2ccc(Br)s2)C(=O)C1 (stereo not drawn),"inconclusive: 5.62 µM [inhibitor, partial curve, poor fit]",–
COc1ccc(-c2csc(NC(=O)C3CCN(C(=O)c4ccc(F)cc4)CC3)n2)cc1OC,"inconclusive: 35.5 µM [inhibitor, partial curve, poor fit]",–

SMILES,Potency,"activity, negative = inhibition"
CCc1ccccc1NC(=O)C1CCCN(C(=O)c2cnn(-c3ccccc3)c2-n2cccc2)C1 (stereo not drawn),"inconclusive: 5.62 µM [inhibitor, partial curve]",–
CCc1nc2ccccc2c(C(=O)OCC(=O)Nc2cccc(S(=O)(=O)NC3=NCCCCC3)c2)c1C,"inconclusive: 25.1 µM [inhibitor, partial curve, poor fit]",–
CC(C)(C)CC(=O)O/N=C(\N)c1ccccn1,"inconclusive: 17.8 µM [inhibitor, single point]",–
O=C(NC(c1ccccc1)c1ccc2ccccc2n1)C1CCN(CCOc2ccc(Cl)cc2)CC1 (stereo not drawn),"inconclusive: 31.6 µM [inhibitor, single point]",–
Cn1ncc2c(O/N=C(\N)c3ccc(C(F)(F)F)cc3)ncnc21,"inconclusive: 22.4 µM [inhibitor, partial curve, poor fit]",–
COc1ccc(Nc2nc(N)c3cc(OC)c(OC)cc3n2)cc1,"inconclusive: 3.16 µM [inhibitor, full curve]",–
Brc1ccc(C2=Nn3c(Cn4nnc5ccccc54)nnc3SC2)cc1,–,inconclusive: -31.7% [inhibitor]
O=S(=O)(/C=C/C=C/S(=O)(=O)c1ccccc1)c1ccccc1,"inconclusive: 7.94 µM [inhibitor, full curve, poor fit]",–
O=C(NNC(=O)C1CCN(Cc2ccc(F)cc2Cl)CC1)Nc1ccc([N+](=O)[O-])cc1,"inconclusive: 31.6 µM [inhibitor, partial curve, poor fit]",–
Fc1ccc2[nH]c3c(N4CCSCC4)ncnc3c2c1,"inconclusive: 3.16 µM [inhibitor, full curve, poor fit]",–
Cc1ccccc1CS(=O)(=O)Cc1ccc(C(=O)NCCc2ccc(Cl)cc2)o1,"inconclusive: 28.2 µM [inhibitor, partial curve, poor fit]",–
CC(CNC(=O)c1ccc(Cn2c(=O)c3cccn3c3cccnc32)cc1)c1ccccc1 (stereo not drawn),"inconclusive: 7.08 µM [inhibitor, partial curve]",–
COc1ccc(-c2c(C)c3cc(OC(=O)N4CCOCC4)ccc3oc2=O)cc1OC,"inconclusive: 3.98 µM [inhibitor, partial curve]",–
CC12CN(C(=O)c3ccco3)CC(c3ccccc3)(CN(C(=O)c3ccco3)C1)C2=O,–,inactive: -31%
CN(Cc1cnn(C)c1)C(=O)CC1C(=O)NCCN1Cc1cccc(Oc2ccccc2)c1 (stereo not drawn),"inconclusive: 39.8 µM [inhibitor, partial curve, poor fit]",–
CCn1c(SCC(=O)N/N=C/c2ccc(C)o2)nnc1-c1ccc(C(C)(C)C)cc1,"inconclusive: 31.6 µM [inhibitor, partial curve, poor fit]",–
CN1CCN(NC(=O)Nc2cc(Cl)cc(Cl)c2)CC1,–,inactive: -36.1%
CCOC(=O)N1CCN(CC(=O)Nc2c(C(=O)OC)[nH]c3ccc(Cl)cc23)CC1,"inconclusive: 31.6 µM [inhibitor, partial curve, poor fit]",–
